Laboratory results: PubChem BioAssay AID1259254 (NCATS, 2017)
This is a random part of about 59,000 reagents tested. In the full data, about 1,550 (2.6%) are marked active. 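G2 share is only a proxy for re-replication; each gene was hit by three separate siRNAs, and active genes were retested.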 A number with no mark means an inactive call. The numbers tell different reagents against one gene apart. Further read-outs or replicates are left out here. Not stated in the record: the amount of reagent.

Test: 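Genome-wide screen for genes that prevent DNA re-replication in cancer cells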 (primary screen)
Cell system: human HCT116 colorectal cancer cells
Reagents: single siRNA against human genes
Timing: 3 days
Measured: 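Imaged Hoechst DNA stain sorts each cell into a cycle phase by DNA amount; per plate, G2 fraction set to 0% for non-targeting and 100% for GMNN siRNA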
Scale: G2 robust z-score and G2 cells, % of GMNN control: higher = more G2 cells, more excess DNA replication
Hit rule: 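Active siRNAs have a G2 robust z of 5 or more median absolute deviations over the median, which in these data means about 38% or higher of GMNN control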

| target gene | siRNA no. | G2 robust z-score | G2 cells, % of GMNN control |
| --- | --- | --- | --- |
| STK32A | 1 | -0.819 | -2.79 |
| STK32A | 2 | 0.634 | 7.42 |
| STK32A | 3 | -0.422 | -0.000578 |
| PRKN | 1 | -0.0839 | 2.38 |
| PRKN | 2 | 1.02 | 10.2 |
| PRKN | 3 | 2.61 | 21.3 |
| CA4 | 1 | -0.925 | -3.54 |
| CA4 | 2 | 1.98 | 16.9 |
| CA4 | 3 | -0.117 | 2.14 |
| IPO8 | 1 | -0.565 | -1.01 |
| IPO8 | 2 | 0.664 | 7.64 |
| IPO8 | 3 | 0.186 | 4.28 |
| ALG1L2 | 1 | -0.345 | 0.539 |
| ALG1L2 | 2 | 0.0876 | 3.58 |
| ALG1L2 | 3 | -0.114 | 2.16 |
| MMP13 | 1 | 1.05 | 10.4 |
| MMP13 | 2 | -0.838 | -2.93 |
| MMP13 | 3 | -0.174 | 1.74 |
| CSN3 | 1 | -0.435 | -0.0912 |
| CSN3 | 2 | 1.11 | 10.8 |
| CSN3 | 3 | 0.296 | 5.05 |
| ACOT1 | 1 | -0.788 | -2.57 |
| ACOT1 | 2 | 0.649 | 7.53 |
| ACOT1 | 3 | 3.47 | 27.4 |
| RNH1 | 1 | -0.271 | 1.06 |
| RNH1 | 2 | 0.231 | 4.59 |
| RNH1 | 3 | 0.694 | 7.85 |
| NBPF1 | 1 | 2.58 | 21.1 |
| NBPF1 | 2 | -0.906 | -3.41 |
| NBPF1 | 3 | -0.228 | 1.37 |

Next part, starting with the last 6 of the part before.
| target gene | siRNA no. | G2 robust z-score | G2 cells, % of GMNN control |
| --- | --- | --- | --- |
| RNH1 | 1 | -0.271 | 1.06 |
| RNH1 | 2 | 0.231 | 4.59 |
| RNH1 | 3 | 0.694 | 7.85 |
| NBPF1 | 1 | 2.58 | 21.1 |
| NBPF1 | 2 | -0.906 | -3.41 |
| NBPF1 | 3 | -0.228 | 1.37 |
| ZBTB44 | 1 | 0.878 | 9.14 |
| ZBTB44 | 2 | 0.204 | 4.4 |
| ZBTB44 | 3 | 0.412 | 5.87 |
| FAM168A | 1 | -0.36 | 0.432 |
| FAM168A | 2 | 0.26 | 4.79 |
| FAM168A | 3 | 0.786 | 8.5 |
| SCIMP | 1 | 0.202 | 4.39 |
| SCIMP | 2 | 1.62 | 14.4 |
| SCIMP | 3 | -0.443 | -0.146 |
| CSNK2A2 | 1 | -0.852 | -3.02 |
| CSNK2A2 | 2 | 0.73 | 8.1 |
| CSNK2A2 | 3 | -0.339 | 0.582 |
| CPNE1 | 1 | 1.58 | 14.1 |
| CPNE1 | 2 | 1.17 | 11.2 |
| CPNE1 | 3 | 3.15 | 25.1 |
| PRDX1 | 1 | 0.56 | 6.91 |
| PRDX1 | 2 | -0.954 | -3.75 |
| PRDX1 | 3 | 0.0631 | 3.41 |
